# Data reported in US20150224120A1, “COMPOSITIONS AND METHODS FOR TREATING HYPERPROLINEMIA-ASSOCIATED MENTAL DISORDERS” (priority 2011, published 2015).
# For at least one compound, name, drawing or mass did not settle the structure.
# How the values were obtained:
# [1] = system: CNS PRODH expression; settings: mice exposed to antipsychotics, GEO GDS2531; cited from earlier work
# [2] = cited from earlier work
# [3] = system: Prodh gene expression; assay: Prodh expression in primary neurons treated with rosiglitazone (Taqman assay, normalized to Gapdh); format: cell-based; settings: E18 mouse primary neurons, 24 hours, 0.5, 1.0 and 10 μM, upregulation at 1-10 μM, p=0.036
# [4] = system: PRODH levels; settings: in vitro studies, GDS2705; cited from earlier work
structure (smiles),measurement,setting,value
CN1CCN(C2=Nc3cc(Cl)ccc3Nc3ccccc32)CC1 [clozapine],CNS PRODH expression (probeset 141769_at),[1],upregulation
CCc1ccc(CCOc2ccc(CC3SC(=O)NC3=O)cc2)nc1 (stereo not drawn) [pioglitazone],mean PANSS depression score post-treatment,"[2]; SZ/SaD patients receiving olanzapine or clozapine, pre-treatment score 11, p=0.01",8
same,Total PANSS Scores and Negative and General PANSS Scores,[2]; at 3 months vs. baseline,small but significant decreases
CN(CCOc1ccc(CC2SC(=O)NC2=O)cc1)c1ccccn1 (stereo not drawn) [rosiglitazone],Prodh expression standardized to vehicle-only treatment,[3],increased in a dose-dependent manner
same,Prodh expression standardized to vehicle-only treatment,[3]; listed as RZG,significant upregulation
same,upregulation of PRODH levels,[4],about 400%
